Results published in patent publication US20240000883A1, “METHOD OF SENSITIZING CANCERS TO IMMUNOTHERAPY USING IMMUNOMODULATORY AGENTS” (The Trustees of Columbia University in the City of New York, priority 2020, published 2024).
“Also recorded” adds a separate entry of the source. Not every detail of the peptide structures is certain; ends, links or a residue may be inferred.

Experiments:
[1] = tested on: CD25+ CD4+ T cells (Tregs); experiment: FAM-iRGD binding to Tregs produced in vitro (flow cytometry); set-up: species or system mouse; details: Tregs expanded with CD3/CD28 beads and KPC-derived PDAC cells
KPC-derived PDAC = experiment: Anti-tumor efficacy in KPC-derived PDAC mice (iRGD, anti-PD-L1 mAb, Gem); assay type: in vivo; details: 3x a week for 2 weeks
[2] = tested on: CD25+ CD4+ T cells (Tregs); experiment: FAM-iRGD binding to Tregs isolated from KPC-derived PDAC (flow cytometry); set-up: species or system mouse; details: fluorescein (FAM)-labeled iRGD, 37° C., 1 hour
[3] = tested on: de novo pancreatic ductal adenocarcinoma (PDAC); experiment: Survival of transgenic KPC mice bearing de novo PDAC under long-term treatment; assay type: in vivo
Procedure: FIG. 1A is a graph showing the percent survival of transgenic Kras-LSL^[…], p53-LSL^172H, Pdx-1-cre (KPC) mice bearing de novo pancreatic ductal adenocarcinoma (PDAC) treated with gemcitabine (GEM).
FIG. 1 presents data showing that iRGD therapy increases CD8^+ T cells in transgenic PDAC mice. […] We randomized mice to therapy with intraperitoneal (IP) gemcitabine alone (100 mg/kg/injection), intravenous (IV) iRGD alone (100 μg/injection) or gemcitabine co-administered with iRGD. Mice were followed with high resolution ultrasound and manual palpation until at least one tumor nodule of 4-5 mm became both palpable and visible on consecutive ultrasound exams. At this point, the mice were randomized to one of the three treatment arms. Treatment was given every 4 days until the animals were sacrificed for having signs of distress. […] Of note, while there was a difference in median survival favoring the combination (71 days versus 84 days), there was a more striking difference in the tail of the survival curve such that survival at 180 days was 0% for gemcitabine alone versus 40% in the iRGD+gemcitabine group.

CD8+ T cells in PDAC = experiment: CD8+ T cell staining and counting in tumors of treated KPC mice; assay type: in vivo; details: KPC mice PDAC tissue; cells counted per field of view
[4] = tested on: CD25neg CD4+ T cells (non-Tregs); experiment: FAM-iRGD binding to non-Tregs isolated from KPC-derived PDAC (flow cytometry); set-up: species or system mouse; details: fluorescein (FAM)-labeled iRGD, 37° C., 1 hour
[5] = tested on: CD25neg CD4+ T cells (non-Tregs); experiment: FAM-iRGD binding to non-Tregs produced in vitro (flow cytometry); details: mouse splenic T cells cultured with CD3/CD28 beads and KPC-derived PDAC cells
PDAC-infiltrating Tregs = experiment: iRGD monotherapy: Tregs and CTL/Treg ratio in PDAC tissue and spleen; assay type: in vivo, mice
[6] = orthotopic PDAC mice, systemic treatment for 2 weeks versus PBS

Structure (SMILES): N=C(N)NCCC[C@@H]1NC(=O)[C@@H](N)CSSC[C@@H](C(=O)O)NC(=O)[C@H](CC(=O)O)NC(=O)[C@@H]2CCCN2C(=O)CNC(=O)[C@H](CCCCN)NC(=O)[C@H](CC(=O)O)NC(=O)CNC1=O [iRGD]
- iRGD binding to cultured Tregs [1]: bound
- anti-tumor efficacy (KPC-derived PDAC): no effect
- iRGD binding to Tregs isolated from the mouse PDAC [2]: effectively bound
- survival / therapeutic benefit (in words) [3]: unlikely to offer any therapeutic benefit; also recorded: did not affect survival
- CD8+ T cells in the tumors (CD8+ T cells in PDAC): expanded CD8^+ T cells in the tumor, although to a lesser extent than iRGD+GEM
- iRGD binding to CD25neg CD4+ T cells (non-Tregs) isolated from PDAC [4]: minimally
- iRGD binding to cultured non-Tregs [5]: minimally
- αvβ5 integrin+ Tregs in the PDAC tissue (PDAC-infiltrating Tregs; after iRGD monotherapy): significant decrease
- CTL/Treg ratio in the PDAC tissue (PDAC-infiltrating Tregs; [6]): increased
- PDAC-infiltrating Tregs (PDAC-infiltrating Tregs; [6]): significantly decreased
- CTL/Treg ratio in the spleen (PDAC-infiltrating Tregs; spleen, iRGD monotherapy): no change
- Tregs in the spleen (PDAC-infiltrating Tregs; spleen, iRGD monotherapy): no change
